Results published in the supplement of paper PMC12819154, “High-throughput peptide-centric local stability assay extends protein–ligand identification to membrane proteins, tissues and bacteria” (Nature Structural & Molecular Biology, 2025).
The list shows a part of the results. Small differences around the control level are noise.

Chains of the proteins cited; added tags and fusions are not shown. Lines headed by an entry give the natural chain unless they say otherwise; changes in a name come on top.
UniProt Q6ICL3: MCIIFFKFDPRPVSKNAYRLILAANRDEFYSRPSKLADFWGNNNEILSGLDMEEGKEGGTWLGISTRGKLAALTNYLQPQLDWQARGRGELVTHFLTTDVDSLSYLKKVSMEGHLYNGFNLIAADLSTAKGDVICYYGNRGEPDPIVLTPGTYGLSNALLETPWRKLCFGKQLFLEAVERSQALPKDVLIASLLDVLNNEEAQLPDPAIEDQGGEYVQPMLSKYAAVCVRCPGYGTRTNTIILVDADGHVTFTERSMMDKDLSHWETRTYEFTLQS
UniProt Q6NYC8: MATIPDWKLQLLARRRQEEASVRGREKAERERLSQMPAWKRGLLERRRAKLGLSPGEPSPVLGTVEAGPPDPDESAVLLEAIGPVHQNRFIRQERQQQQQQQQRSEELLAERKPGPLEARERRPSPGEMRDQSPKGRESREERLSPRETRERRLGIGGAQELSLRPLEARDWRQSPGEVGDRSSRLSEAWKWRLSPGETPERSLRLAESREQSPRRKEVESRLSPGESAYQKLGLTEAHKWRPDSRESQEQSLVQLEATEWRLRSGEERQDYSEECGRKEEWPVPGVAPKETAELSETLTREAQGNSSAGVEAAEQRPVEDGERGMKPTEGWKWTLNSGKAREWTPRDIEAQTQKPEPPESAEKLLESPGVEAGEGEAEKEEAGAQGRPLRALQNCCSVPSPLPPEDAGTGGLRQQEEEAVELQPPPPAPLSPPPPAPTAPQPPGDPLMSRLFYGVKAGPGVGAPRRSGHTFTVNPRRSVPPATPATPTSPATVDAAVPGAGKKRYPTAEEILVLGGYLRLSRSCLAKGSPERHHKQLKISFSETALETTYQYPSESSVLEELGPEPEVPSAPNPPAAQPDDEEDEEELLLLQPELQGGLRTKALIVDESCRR
UniProt Q6PK04: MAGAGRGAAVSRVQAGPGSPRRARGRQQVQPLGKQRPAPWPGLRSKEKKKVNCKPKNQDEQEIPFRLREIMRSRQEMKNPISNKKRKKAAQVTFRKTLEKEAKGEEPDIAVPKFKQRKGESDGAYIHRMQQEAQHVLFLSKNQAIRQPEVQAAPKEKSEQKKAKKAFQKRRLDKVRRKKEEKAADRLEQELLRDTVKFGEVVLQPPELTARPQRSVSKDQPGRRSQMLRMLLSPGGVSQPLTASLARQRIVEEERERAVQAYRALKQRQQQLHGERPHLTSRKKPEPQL
UniProt Q6NUM6: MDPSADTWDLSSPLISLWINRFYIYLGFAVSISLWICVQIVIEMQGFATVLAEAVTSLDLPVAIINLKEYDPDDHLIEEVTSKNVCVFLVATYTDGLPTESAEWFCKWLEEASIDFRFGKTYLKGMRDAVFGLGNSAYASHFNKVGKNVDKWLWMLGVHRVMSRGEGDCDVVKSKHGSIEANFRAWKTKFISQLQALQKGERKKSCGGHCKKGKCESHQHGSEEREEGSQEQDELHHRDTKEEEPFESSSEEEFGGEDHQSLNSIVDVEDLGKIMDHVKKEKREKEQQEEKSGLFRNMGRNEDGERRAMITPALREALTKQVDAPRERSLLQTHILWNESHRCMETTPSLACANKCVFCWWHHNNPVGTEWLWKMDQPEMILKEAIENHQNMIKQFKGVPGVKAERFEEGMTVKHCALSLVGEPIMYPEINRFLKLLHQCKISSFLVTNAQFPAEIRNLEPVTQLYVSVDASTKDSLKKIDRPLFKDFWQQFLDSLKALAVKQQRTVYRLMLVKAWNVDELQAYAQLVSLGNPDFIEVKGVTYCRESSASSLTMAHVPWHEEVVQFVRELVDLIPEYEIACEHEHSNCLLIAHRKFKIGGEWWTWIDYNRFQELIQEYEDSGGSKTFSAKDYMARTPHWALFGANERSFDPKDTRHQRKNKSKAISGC
UniProt Q6NUQ1: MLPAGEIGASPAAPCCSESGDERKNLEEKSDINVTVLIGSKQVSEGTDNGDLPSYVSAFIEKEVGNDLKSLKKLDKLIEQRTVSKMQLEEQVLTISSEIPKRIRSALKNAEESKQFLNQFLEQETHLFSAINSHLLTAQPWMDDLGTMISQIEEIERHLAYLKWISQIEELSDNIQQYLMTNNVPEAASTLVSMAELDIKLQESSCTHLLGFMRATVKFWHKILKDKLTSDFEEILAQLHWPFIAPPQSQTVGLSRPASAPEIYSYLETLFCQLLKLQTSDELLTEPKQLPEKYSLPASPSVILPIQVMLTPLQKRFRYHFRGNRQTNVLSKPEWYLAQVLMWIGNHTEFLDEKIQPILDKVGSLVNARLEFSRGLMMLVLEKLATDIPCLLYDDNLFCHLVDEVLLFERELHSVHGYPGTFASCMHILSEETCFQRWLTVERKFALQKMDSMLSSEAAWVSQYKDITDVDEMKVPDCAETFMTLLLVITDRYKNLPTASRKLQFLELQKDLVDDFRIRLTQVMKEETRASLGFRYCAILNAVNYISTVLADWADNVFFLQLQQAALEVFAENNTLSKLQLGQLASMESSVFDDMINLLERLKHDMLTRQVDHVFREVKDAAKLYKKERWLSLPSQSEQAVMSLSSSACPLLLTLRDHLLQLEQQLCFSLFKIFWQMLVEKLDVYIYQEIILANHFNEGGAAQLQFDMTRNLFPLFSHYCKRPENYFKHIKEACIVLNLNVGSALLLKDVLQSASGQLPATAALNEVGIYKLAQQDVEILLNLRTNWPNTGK
UniProt Q6P6B7: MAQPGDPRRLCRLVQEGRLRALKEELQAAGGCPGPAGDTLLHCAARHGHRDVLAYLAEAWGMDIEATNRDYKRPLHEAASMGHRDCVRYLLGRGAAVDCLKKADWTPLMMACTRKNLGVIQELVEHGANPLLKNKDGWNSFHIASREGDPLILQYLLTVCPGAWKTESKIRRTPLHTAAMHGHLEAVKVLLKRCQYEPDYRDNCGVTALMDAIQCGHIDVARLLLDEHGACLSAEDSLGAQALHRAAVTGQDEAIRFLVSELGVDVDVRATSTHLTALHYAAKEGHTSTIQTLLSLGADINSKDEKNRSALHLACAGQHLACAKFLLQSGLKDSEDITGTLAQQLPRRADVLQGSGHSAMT
UniProt Q5XKL5: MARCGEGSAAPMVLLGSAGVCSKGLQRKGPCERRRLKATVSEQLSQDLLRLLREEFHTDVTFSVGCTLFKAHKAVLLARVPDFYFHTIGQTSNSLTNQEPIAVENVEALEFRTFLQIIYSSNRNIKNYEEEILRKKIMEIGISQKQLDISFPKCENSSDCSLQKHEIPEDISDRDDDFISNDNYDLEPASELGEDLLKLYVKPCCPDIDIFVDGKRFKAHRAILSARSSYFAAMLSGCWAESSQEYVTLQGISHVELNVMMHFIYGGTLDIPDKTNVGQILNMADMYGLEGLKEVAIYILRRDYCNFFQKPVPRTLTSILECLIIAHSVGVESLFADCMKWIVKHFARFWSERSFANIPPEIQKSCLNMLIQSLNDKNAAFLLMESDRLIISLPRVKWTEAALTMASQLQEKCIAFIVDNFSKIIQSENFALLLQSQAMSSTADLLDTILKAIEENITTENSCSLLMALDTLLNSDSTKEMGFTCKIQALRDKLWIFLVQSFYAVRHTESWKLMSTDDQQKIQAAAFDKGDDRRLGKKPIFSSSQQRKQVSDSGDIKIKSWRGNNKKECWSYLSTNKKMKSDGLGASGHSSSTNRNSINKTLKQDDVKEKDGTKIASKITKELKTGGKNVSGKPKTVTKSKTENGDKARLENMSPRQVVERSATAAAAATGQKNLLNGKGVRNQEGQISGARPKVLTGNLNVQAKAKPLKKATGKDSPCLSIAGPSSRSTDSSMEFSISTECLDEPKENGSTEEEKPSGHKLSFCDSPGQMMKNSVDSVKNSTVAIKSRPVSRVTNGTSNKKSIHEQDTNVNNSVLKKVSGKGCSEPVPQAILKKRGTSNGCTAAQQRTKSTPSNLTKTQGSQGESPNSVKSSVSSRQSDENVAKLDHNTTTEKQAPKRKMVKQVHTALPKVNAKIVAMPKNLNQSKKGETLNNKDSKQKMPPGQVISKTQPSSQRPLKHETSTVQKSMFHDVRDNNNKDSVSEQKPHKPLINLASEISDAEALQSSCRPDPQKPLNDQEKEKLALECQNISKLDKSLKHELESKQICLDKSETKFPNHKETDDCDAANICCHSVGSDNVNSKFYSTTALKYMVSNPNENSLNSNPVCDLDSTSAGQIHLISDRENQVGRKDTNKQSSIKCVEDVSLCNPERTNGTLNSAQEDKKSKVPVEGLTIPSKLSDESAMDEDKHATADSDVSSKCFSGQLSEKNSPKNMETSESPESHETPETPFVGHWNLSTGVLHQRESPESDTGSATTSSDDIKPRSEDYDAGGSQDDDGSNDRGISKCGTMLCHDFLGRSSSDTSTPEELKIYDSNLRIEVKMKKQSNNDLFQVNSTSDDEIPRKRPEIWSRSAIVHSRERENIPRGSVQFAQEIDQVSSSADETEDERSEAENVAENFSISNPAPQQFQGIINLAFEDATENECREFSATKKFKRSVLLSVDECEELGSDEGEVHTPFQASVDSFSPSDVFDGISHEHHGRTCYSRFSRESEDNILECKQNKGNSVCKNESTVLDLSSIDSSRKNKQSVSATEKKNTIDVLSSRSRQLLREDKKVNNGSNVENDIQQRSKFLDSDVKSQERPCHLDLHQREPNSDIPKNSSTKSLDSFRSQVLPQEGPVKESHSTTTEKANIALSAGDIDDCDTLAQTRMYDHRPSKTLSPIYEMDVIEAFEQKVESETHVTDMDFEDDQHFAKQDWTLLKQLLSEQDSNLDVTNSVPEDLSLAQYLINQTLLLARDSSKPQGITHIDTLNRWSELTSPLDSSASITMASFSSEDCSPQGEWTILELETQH
UniProt Q6IA86: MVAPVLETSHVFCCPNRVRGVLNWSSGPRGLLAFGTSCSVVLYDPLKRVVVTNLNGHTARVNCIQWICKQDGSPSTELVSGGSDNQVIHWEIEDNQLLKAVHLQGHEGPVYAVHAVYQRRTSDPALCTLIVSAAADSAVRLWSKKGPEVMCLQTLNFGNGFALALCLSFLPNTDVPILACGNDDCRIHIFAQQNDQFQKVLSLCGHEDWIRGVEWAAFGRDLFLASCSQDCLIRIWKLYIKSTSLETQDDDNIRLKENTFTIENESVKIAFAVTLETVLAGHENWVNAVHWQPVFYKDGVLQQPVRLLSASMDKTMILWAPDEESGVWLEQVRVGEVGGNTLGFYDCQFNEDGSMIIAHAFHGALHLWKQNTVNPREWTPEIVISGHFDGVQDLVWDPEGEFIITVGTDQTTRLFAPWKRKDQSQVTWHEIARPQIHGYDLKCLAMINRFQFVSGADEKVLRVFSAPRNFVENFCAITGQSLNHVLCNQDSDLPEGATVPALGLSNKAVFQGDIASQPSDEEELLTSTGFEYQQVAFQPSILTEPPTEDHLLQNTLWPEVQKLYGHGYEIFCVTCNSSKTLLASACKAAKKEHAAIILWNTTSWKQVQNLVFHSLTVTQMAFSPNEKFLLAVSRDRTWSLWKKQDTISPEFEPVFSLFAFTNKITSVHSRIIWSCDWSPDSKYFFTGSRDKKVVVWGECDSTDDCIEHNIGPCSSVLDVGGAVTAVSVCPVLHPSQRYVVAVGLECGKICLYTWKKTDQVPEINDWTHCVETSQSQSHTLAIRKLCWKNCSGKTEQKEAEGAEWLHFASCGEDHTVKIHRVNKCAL
UniProt Q6NSZ9: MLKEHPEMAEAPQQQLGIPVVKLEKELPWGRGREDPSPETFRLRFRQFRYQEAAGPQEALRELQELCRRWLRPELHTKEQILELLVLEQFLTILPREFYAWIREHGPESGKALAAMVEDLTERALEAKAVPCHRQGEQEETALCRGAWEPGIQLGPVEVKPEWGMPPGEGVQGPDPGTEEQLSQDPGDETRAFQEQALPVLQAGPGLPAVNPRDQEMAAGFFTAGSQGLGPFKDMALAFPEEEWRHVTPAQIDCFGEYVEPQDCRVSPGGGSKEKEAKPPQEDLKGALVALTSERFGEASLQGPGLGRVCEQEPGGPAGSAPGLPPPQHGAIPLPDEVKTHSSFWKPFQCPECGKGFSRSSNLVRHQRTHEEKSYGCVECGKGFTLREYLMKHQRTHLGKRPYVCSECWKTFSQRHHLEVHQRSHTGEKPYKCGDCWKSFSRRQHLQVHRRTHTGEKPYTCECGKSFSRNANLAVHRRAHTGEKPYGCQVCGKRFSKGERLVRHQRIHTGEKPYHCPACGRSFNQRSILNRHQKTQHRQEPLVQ
UniProt Q6NVV7: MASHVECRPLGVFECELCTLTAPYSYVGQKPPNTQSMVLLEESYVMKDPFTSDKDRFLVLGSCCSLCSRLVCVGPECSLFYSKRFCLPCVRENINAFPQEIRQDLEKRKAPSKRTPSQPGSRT
UniProt Q6NW29: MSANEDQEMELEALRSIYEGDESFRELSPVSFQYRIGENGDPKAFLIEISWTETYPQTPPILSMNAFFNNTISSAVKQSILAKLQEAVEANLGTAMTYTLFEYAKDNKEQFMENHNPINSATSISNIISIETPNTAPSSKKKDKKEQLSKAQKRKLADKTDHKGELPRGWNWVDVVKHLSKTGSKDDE

Compound: Cc1nc(Nc2ncc(C(=O)Nc3c(C)cccc3Cl)s2)cc(N2CCN(CCO)CC2)n1 [dasatinib]
Assay: log2 fold change of tryptic peptide abundance, ligand vs vehicle (limited proteolysis) (log2 ratio); higher = more trypsin-susceptible (destabilized)
Conditions: ligand concentration: 5 uM; sample: K562 cleared lysate

| Target | log2 fold change |
| --- | --- |
| ALKBH2 (peptide sequence: YKDGCDHIGEHR, peptide start residue: 161) (UniProt Q6NS38) | -0.473 |
| UniProt Q5VT97 (peptide sequence: HYSFSDQPK, peptide start residue: 665) | -0.493 |
| UniProt Q69YQ0 (peptide sequence: STSTGNKESSSTR, peptide start residue: 111) | 1.04 |
| ZFP1 (peptide sequence: DHRNPDEQAR, peptide start residue: 59) (UniProt Q6P2D0) | -0.286 |
| UniProt Q6NXR4 (peptide sequence: LLGKVETAK, peptide start residue: 123) | -0.33 |
| UniProt Q6ICL3 (peptide sequence: LILAANRDEFYSRPSK, peptide start residue: 20) | 0.305 |
| SMARCD3 (peptide sequence: MADKILPQR, peptide start residue: 128) (UniProt Q6STE5) | 0.857 |
| RFWD3 (peptide sequence: LHGMLEFLRPSSSNHSVGPMR, peptide start residue: 130) (UniProt Q6PCD5) | -0.348 |
| BICRAL (peptide sequence: CLNQTSPISAPK, peptide start residue: 618) (UniProt Q6AI39) | 0.386 |
| EDC4 (peptide sequence: VKIQPVAK, peptide start residue: 118) (UniProt Q6P2E9) | 0.193 |
| TMED8 (peptide sequence: ATGPLEAQALVK, peptide start residue: 84) (UniProt Q6PL24) | -0.0886 |
| UniProt Q6P1J9 (peptide sequence: TDLDDDITALK, peptide start residue: 199) | 0.0705 |
| RRAGB (peptide sequence: IFCLVHK, peptide start residue: 122) (UniProt Q5VZM2) | -0.324 |
| TTC19 (peptide sequence: EIYQEALK, peptide start residue: 339) (UniProt Q6DKK2) | 0.266 |
| ANGEL2 (peptide sequence: NWEYICSHDKEK, peptide start residue: 134) (UniProt Q5VTE6) | 0.124 |
| NIPBL (peptide sequence: NLYNNILSDKNSSVNLK, peptide start residue: 2214) (UniProt Q6KC79) | 0.407 |
| UniProt Q6NYC8 (peptide sequence: LSPGETPERSLRLAESR, peptide start residue: 194) | -0.539 |
| UniProt Q6IN85 (peptide sequence: GTGHVSSGYVER, peptide start residue: 23) | 0.255 |
| CCDC137 (peptide sequence: QQVQPLGK, peptide start residue: 27) (UniProt Q6PK04) | -0.138 |
| DAB2IP (peptide sequence: AVHPNKDNSR, peptide start residue: 200) (UniProt Q5VWQ8) | 0.175 |
| HIBCH (peptide sequence: SLGSSDLKF, peptide start residue: 378) (UniProt Q6NVY1) | 0.224 |

| Target | log2 fold change |
| --- | --- |
| UniProt Q6NUM6 (peptide sequence: AMITPALR, peptide start residue: 354) | 0.0947 |
| UniProt Q5VZ66 (peptide sequence: EQLQAEVQR, peptide start residue: 537) | 0.15 |
| UniProt Q5VWQ0 (peptide sequence: GRPSQEPPLAPPHR, peptide start residue: 101) | -0.0934 |
| MBNL2 (peptide sequence: VIACFDSLK, peptide start residue: 50) (UniProt Q5VZF2) | -0.0546 |
| RSBN1L (peptide sequence: LDHVQFAEFK, peptide start residue: 790) (UniProt Q6PCB5) | -0.433 |
| WDR59 (peptide sequence: QLLESLLAHYCR, peptide start residue: 727) (UniProt Q6PJI9) | 0.305 |
| UniProt Q6NSW5 (peptide sequence: IEAVQEFTR, peptide start residue: 190) | 0.0422 |
| ARID2 (peptide sequence: IPQNPSPHTHQQQNAPVTVIQSK, peptide start residue: 684) (UniProt Q68CP9) | 0.189 |
| IQSEC1 (peptide sequence: GVVRPSMSQCSSLK, peptide start residue: 881) (UniProt Q6DN90) | -0.376 |
| LIN54 (peptide sequence: ADSNTTVKPAFPSGLQK, peptide start residue: 85) (UniProt Q6MZP7) | -0.322 |
| RINT1 (peptide sequence: MQLEEQVLTISSEIPKR, peptide start residue: 86) (UniProt Q6NUQ1) | 0.0753 |
| ANKRD16 (peptide sequence: RTPLHTAAMHGHLEAVK, peptide start residue: 172) (UniProt Q6P6B7) | 0.218 |
| MRNIP (peptide sequence: SSHVDSEQPR, peptide start residue: 239) (UniProt Q6NTE8) | 0.259 |
| UniProt Q6SJ96 (peptide sequence: TTALIFSSGK, peptide start residue: 209) | -0.0892 |
| TAF3 (peptide sequence: VTTHIPQTPVRPETPNR, peptide start residue: 326) (UniProt Q5VWG9) | 0.25 |
| UniProt Q5VWN6 (peptide sequence: ETPLPVSLPSDK, peptide start residue: 1144) | -0.454 |
| UniProt Q6PJW8 (peptide sequence: GEVEQLDSR, peptide start residue: 179) | -0.196 |
| UniProt Q63HQ0 (peptide sequence: SQYEVFR, peptide start residue: 163) | -0.132 |
| TWF2 (peptide sequence: AHQTGIHATEELK, peptide start residue: 2) (UniProt Q6IBS0) | -0.858 |
| ZNF691 (peptide sequence: EHGQESLSDELQETHPK, peptide start residue: 70) (UniProt Q5VV52) | 0.433 |
| TATDN1 (peptide sequence: NSHAEFLDIMKR, peptide start residue: 152) (UniProt Q6P1N9) | 0.527 |

Taken from above.
TATDN1 (peptide sequence: NSHAEFLDIMKR, peptide start residue: 152) (UniProt Q6P1N9) – log2 fold change: 0.527
LIN54 (peptide sequence: ADSNTTVKPAFPSGLQK, peptide start residue: 85) (UniProt Q6MZP7) – log2 fold change: -0.322
MBNL2 (peptide sequence: VIACFDSLK, peptide start residue: 50) (UniProt Q5VZF2) – log2 fold change: -0.0546
UniProt Q6SJ96 (peptide sequence: TTALIFSSGK, peptide start residue: 209) – log2 fold change: -0.0892

Remaining list, next part.

| Target | log2 fold change |
| --- | --- |
| DARS2 (peptide sequence: YILATLLKEDVK, peptide start residue: 551) (UniProt Q6PI48) | 0.173 |
| NCAPH2 (peptide sequence: AKQLSSVQEDR, peptide start residue: 91) (UniProt Q6IBW4) | 0.295 |
| SNX30 (peptide sequence: ALPSTGPHSLR, peptide start residue: 8) (UniProt Q5VWJ9) | -0.275 |
| MAST2 (peptide sequence: TPSEEDFETIK, peptide start residue: 506) (UniProt Q6P0Q8) | -0.23 |
| THOC7 (peptide sequence: LLIDGDGAGDDR, peptide start residue: 14) (UniProt Q6I9Y2) | 0.535 |
| UniProt Q6PFW1 (peptide sequence: SKPMTQILER, peptide start residue: 68) | 0.317 |
| NAIF1 (peptide sequence: HLLVNHFNAGVPLAAK, peptide start residue: 29) (UniProt Q69YI7) | -0.218 |
| C16orf87 (peptide sequence: AFVFSVALAEINRK, peptide start residue: 133) (UniProt Q6PH81) | 0.0929 |
| CWF19L1 (peptide sequence: IKKNFPLQFGR, peptide start residue: 481) (UniProt Q69YN2) | -0.746 |
| TRIM68 (peptide sequence: KRVHYGDTNQK, peptide start residue: 323) (UniProt Q6AZZ1) | 0.24 |
| UniProt Q5XKL5 (peptide sequence: CGTMLCHDFLGR, peptide start residue: 1288) | 0.977 |
| SYCE2 (peptide sequence: ISHLETELK, peptide start residue: 139) (UniProt Q6PIF2) | 0.28 |
| ELP2 (peptide sequence: VVVTNLNGHTAR, peptide start residue: 49) (UniProt Q6IA86) | -0.625 |
| YOD1 (peptide sequence: AGPAGAWPVGSR, peptide start residue: 31) (UniProt Q5VVQ6) | -0.503 |
| PPRC1 (peptide sequence: VHVGSGDHDYCVR, peptide start residue: 1289) (UniProt Q5VV67) | -0.466 |
| ZSCAN25 (peptide sequence: EAKPPQEDLK, peptide start residue: 276) (UniProt Q6NSZ9) | 0.55 |
| UniProt Q6NVV7 (peptide sequence: LVCVGPECSLFYSKR, peptide start residue: 70) | 0.25 |
| UniProt Q63HK3 (peptide sequence: SVHQIPAQR, peptide start residue: 243) | 0.484 |
| ZNF746 (peptide sequence: MLHTGERPFPCTECEKR, peptide start residue: 530) (UniProt Q6NUN9) | -0.815 |
| UniProt Q6NW29 (peptide sequence: SIYEGDESFR, peptide start residue: 16) | -0.108 |
| LRSAM1 (peptide sequence: DSPDGPTDR, peptide start residue: 233) (UniProt Q6UWE0) | 0.149 |
